# Laboratory results taken from patent US7786043B2, “2-(pyridin-2-yl)-pyrimidines and their use for controlling harmful fungi” (BASF Aktiengesellschaft, priority 2004, dated 2010).
# Some entries share one result that the patent states for a list of compounds. At least one compound was matched to its structure with a doubt left.
# Key:
# Assay type in all cases: in vivo
# Botrytis cinerea = experiment: Use Example 8: activity against grey mold on bell pepper leaves caused by Botrytis cinerea, protective application; conditions: 63 ppm, rated after 5 days, untreated plants 90% infected
# [1] = test system: Pyrenophora [syn. Drechslera] teres; experiment: Use Example 7: activity against net blotch of barley caused by Pyrenophora teres, 1 day protective application; conditions: 63 ppm, barley seedlings, rated after 6 days, untreated plants 90% infected
# Alternaria solani = experiment: Use Example 6: activity against early blight caused by Alternaria solani (tomato plants); conditions: 63 ppm, protective, rated after 5 days, untreated plants 90% infected
compound,measurement,setting,value
"Clc1ccc(-c2ncc3c(n2)CCCC3)nc1-c1ccccc1 [Example 4, 2-(5-chloro-6-phenylpyridin-2-yl)-5,6,7,8-tetrahydroquinazoline]",infection (infected leaf area),Botrytis cinerea,at most 20%
same,infection (infected leaf area),[1],at most 20%
Cc1ccc(-c2ncc3c(n2)CCCCC3)nc1-c1ccc(F)cc1 [Example 9],infection (infected leaf area),[1],at most 20%
same,infection,Alternaria solani,at most 20%
COc1ccc(-c2ncc3c(n2)CCC3)nc1-c1ccccc1 [Example 13],infection (infected leaf area),[1],at most 20%
same,infection,Alternaria solani,at most 20%
COc1ccc(-c2ncc3c(n2)CCC3)nc1-c1ccc(F)cc1 [Example 16],infection (infected leaf area),[1],at most 20%
same,infection,Alternaria solani,at most 20%
COc1ccc(-c2ncc3c(n2)CCCC3)nc1-c1ccc(F)cc1 [Example 17],infection (infected leaf area),[1],at most 20%
same,infection,Alternaria solani,at most 20%
COc1ccc(-c2ncc3c(n2)CCCCC3)nc1-c1ccc(F)cc1 [Example 18],infection (infected leaf area),[1],at most 20%
same,infection,Alternaria solani,at most 20%
COc1ccc(-c2ncc3c(n2)CCCCC3)nc1-c1ccc(Cl)cc1 [Example 21],infection (infected leaf area),[1],at most 20%
Clc1ccc(-c2ncc3c(n2)CCCCC3)nc1-c1ccccc1 [Example 23],infection (infected leaf area),[1],at most 20%
Fc1ccc(-c2nc(-c3ncc4c(n3)CCCC4)ccc2Cl)cc1 [Example 26],infection (infected leaf area),Botrytis cinerea,at most 20%
same,infection (infected leaf area),[1],at most 20%
Fc1ccc(-c2nc(-c3ncc4c(n3)CCCCC4)ccc2Cl)cc1 [Example 27],infection (infected leaf area),[1],at most 20%
CCOc1ccc(-c2ncc3c(n2)CCCC3)nc1-c1ccc(F)cc1 [Example 72],infection (infected leaf area),[1],at most 20%
same,infection,Alternaria solani,at most 20%
CCOc1ccc(-c2ncc3c(n2)CCC3)nc1-c1ccc(F)cc1 [Example 73],infection (infected leaf area),[1],at most 20%
same,infection,Alternaria solani,at most 20%
CCOc1ccc(-c2ncc3c(n2)CCCC3)nc1-c1ccccc1 [Example 74],infection (infected leaf area),[1],at most 20%
same,infection,Alternaria solani,at most 20%
CCOc1ccc(-c2ncc3c(n2)CCCCC3)nc1-c1ccccc1 [Example 75],infection (infected leaf area),[1],at most 20%
same,infection,Alternaria solani,at most 20%
CCOc1ccc(-c2ncc3c(n2)CCC3)nc1-c1ccccc1 [Example 76],infection (infected leaf area),[1],at most 20%
same,infection,Alternaria solani,at most 20%
CCOc1ccc(-c2ncc3c(n2)CCCCC3)nc1-c1ccc(F)cc1 [Example 77],infection (infected leaf area),[1],at most 20%
Cc1ccc(-c2ncc3c(n2)CC(C)(C)CC3)nc1-c1ccc(F)cc1 [Example 78],infection (infected leaf area),[1],at most 20%
same,infection,Alternaria solani,at most 20%
Cc1ccc(-c2ncc3c(n2)CCCCCC3)nc1-c1ccc(F)cc1 [Example 79],infection (infected leaf area),[1],at most 20%
same,infection,Alternaria solani,at most 20%
CCOc1ccc(-c2ncc3c(n2)CCC3)nc1-c1ccc(Cl)cc1 [Example 80],infection (infected leaf area),Botrytis cinerea,at most 20%
same,infection (infected leaf area),[1],at most 20%
CCOc1ccc(-c2ncc3c(n2)CCCCC3)nc1-c1ccc(Cl)cc1 [Example 81],infection (infected leaf area),[1],at most 20%
Cc1ccc(-c2nc(-c3ncc4c(n3)CCCCC4)ccc2C)cc1 [Example 82],infection (infected leaf area),[1],at most 20%
same,infection,Alternaria solani,at most 20%
Cc1ccc(-c2ncc3c(n2)CCCCC3)nc1-c1ccc(C=O)cc1 [Example 83],infection (infected leaf area),Botrytis cinerea,at most 20%
same,infection (infected leaf area),[1],at most 20%
COc1ccc(-c2nc(-c3ncc4c(n3)CCCCC4)ccc2C)cc1 [Example 84],infection (infected leaf area),[1],at most 20%
same,infection,Alternaria solani,at most 20%
Cc1ccc(-c2ncc3c(n2)CCCCC3)nc1-c1ccc(F)cc1F [Example 85],infection (infected leaf area),[1],at most 20%
same,infection,Alternaria solani,at most 20%
Cc1ccc(-c2ncc3c(n2)CCCCC3)nc1-c1ccccc1Cl [Example 86],infection (infected leaf area),[1],at most 20%
same,infection,Alternaria solani,at most 20%
Cc1ccc(-c2ncc3c(n2)CCCCC3)nc1-c1ccccc1F [Example 87],infection (infected leaf area),[1],at most 20%
same,infection,Alternaria solani,at most 20%
CON=Cc1ccc(-c2nc(-c3ncc4c(n3)CCCCC4)ccc2C)cc1 [Example 88],infection (infected leaf area),[1],at most 20%
same,infection,Alternaria solani,at most 20%
Cc1ccc(-c2ncc3c(n2)CCCCC3)nc1-c1ccc(C(C)(C)C)cc1 [Example 89],infection (infected leaf area),[1],at most 20%
same,infection,Alternaria solani,at most 20%
Cc1ccc(-c2ncc3c(n2)CCCCC3)nc1-c1ccc(C(C)C)cc1 [Example 90],infection (infected leaf area),[1],at most 20%
same,infection,Alternaria solani,at most 20%
Cc1ccccc1-c1nc(-c2ncc3c(n2)CCCCC3)ccc1C [Example 91],infection (infected leaf area),[1],at most 20%
same,infection,Alternaria solani,at most 20%
Cc1ccc(-c2ncc3c(n2)CCCCC3)nc1-c1ccc(C#N)cc1 [Example 92],infection (infected leaf area),[1],at most 20%
same,infection,Alternaria solani,at most 20%
CON=C(C)c1ccc(-c2nc(-c3ncc4c(n3)CCCC4)ccc2C)cc1 [Example 93],infection (infected leaf area),[1],at most 20%
same,infection,Alternaria solani,at most 20%
CSc1ccc(-c2nc(-c3ncc4c(n3)CCCC4)ccc2C)cc1 [Example 94],infection (infected leaf area),Botrytis cinerea,at most 20%
same,infection (infected leaf area),[1],at most 20%
CSc1cccc(-c2nc(-c3ncc4c(n3)CCCC4)ccc2C)c1 [Example 95],infection (infected leaf area),[1],at most 20%
same,infection,Alternaria solani,at most 20%
Cc1ccc(-c2ncc3c(n2)CC(C)(C)CC3)nc1-c1ccc(Cl)cc1 [Example 96],infection (infected leaf area),[1],at most 20%
Cc1ccc(-c2nc(-c3ncc4c(n3)CC(C)(C)CC4)ccc2C)cc1 [Example 98],infection (infected leaf area),[1],at most 20%
COc1ccc(-c2nc(-c3ncc4c(n3)CC(C)(C)CC4)ccc2C)cc1 [Example 102],infection (infected leaf area),[1],at most 20%
CCOc1ccc(-c2nc(-c3ncc4c(n3)CC(C)(C)CC4)ccc2C)cc1 [Example 105],infection (infected leaf area),[1],at most 20%
Cc1ccccc1-c1nc(-c2ncc3c(n2)CC(C)(C)CC3)ccc1C [Example 119],infection (infected leaf area),[1],at most 20%
COc1ccccc1-c1nc(-c2ncc3c(n2)CC(C)(C)CC3)ccc1C [Example 120],infection (infected leaf area),[1],at most 20%
CCOc1ccccc1-c1nc(-c2ncc3c(n2)CC(C)(C)CC3)ccc1C [Example 121],infection (infected leaf area),[1],at most 20%
Cc1ccc(-c2ncc3c(n2)CC(C)(C)CC3)nc1-c1ccc(F)cc1F [Example 124],infection (infected leaf area),[1],at most 20%
Cc1cc(F)ccc1-c1nc(-c2ncc3c(n2)CC(C)(C)CC3)ccc1C [Example 126],infection (infected leaf area),[1],at most 20%
COc1ccc(-c2nc(-c3ncc4c(n3)CC(C)(C)CC4)ccc2C)c(OC)c1 [Example 127],infection (infected leaf area),[1],at most 20%
Cc1ccc(-c2ncc3c(n2)CC(C)(C)CC3)nc1-c1cc(F)ccc1F [Example 128],infection (infected leaf area),[1],at most 20%
CSc1cccc(-c2nc(-c3ncc4c(n3)CC(C)(C)CC4)ccc2C)c1 [Example 136],infection (infected leaf area),[1],at most 20%
CCOc1cccc(-c2nc(-c3ncc4c(n3)CC(C)(C)CC4)ccc2C)c1 [Example 137],infection (infected leaf area),[1],at most 20%
Cc1ccc(-c2ncc3c(n2)CC(C)(C)CC3)nc1-c1cccc(OC(C)C)c1 [Example 138],infection (infected leaf area),[1],at most 20%
CC(=O)c1cccc(-c2nc(-c3ncc4c(n3)CC(C)(C)CC4)ccc2C)c1 [Example 139],infection (infected leaf area),[1],at most 20%
Cc1ccc(-c2ncc3c(n2)CC(C)(C)CC3)nc1-c1ccc(F)c(F)c1 [Example 143],infection (infected leaf area),[1],at most 20%
COc1ccc(-c2nc(-c3ncc4c(n3)CC(C)(C)CC4)ccc2C)cc1OC [Example 146],infection (infected leaf area),[1],at most 20%
CCOc1ccc(-c2nc(-c3ncc4c(n3)CC(C)(C)CC4)ccc2C)cc1Cl [Example 151],infection (infected leaf area),[1],at most 20%
Cc1cc(C)cc(-c2nc(-c3ncc4c(n3)CC(C)(C)CC4)ccc2C)c1 [Example 157],infection (infected leaf area),[1],at most 20%
Cc1ccc(-c2ncc3c(n2)CC(C)(C)CC3)nc1-c1cc(F)c(F)c(F)c1 [Example 159],infection (infected leaf area),[1],at most 20%
